In publication PMC11667235:
No constants are given. Whether binding was seen depends on the method and setting. Binding seen in cells or lysates may run through a third protein. Some results given as binding are weak or reduced against the parent protein; the word gives no strength.

Amino acid sequences for entries named in this document (tags omitted).
UniProt P19338: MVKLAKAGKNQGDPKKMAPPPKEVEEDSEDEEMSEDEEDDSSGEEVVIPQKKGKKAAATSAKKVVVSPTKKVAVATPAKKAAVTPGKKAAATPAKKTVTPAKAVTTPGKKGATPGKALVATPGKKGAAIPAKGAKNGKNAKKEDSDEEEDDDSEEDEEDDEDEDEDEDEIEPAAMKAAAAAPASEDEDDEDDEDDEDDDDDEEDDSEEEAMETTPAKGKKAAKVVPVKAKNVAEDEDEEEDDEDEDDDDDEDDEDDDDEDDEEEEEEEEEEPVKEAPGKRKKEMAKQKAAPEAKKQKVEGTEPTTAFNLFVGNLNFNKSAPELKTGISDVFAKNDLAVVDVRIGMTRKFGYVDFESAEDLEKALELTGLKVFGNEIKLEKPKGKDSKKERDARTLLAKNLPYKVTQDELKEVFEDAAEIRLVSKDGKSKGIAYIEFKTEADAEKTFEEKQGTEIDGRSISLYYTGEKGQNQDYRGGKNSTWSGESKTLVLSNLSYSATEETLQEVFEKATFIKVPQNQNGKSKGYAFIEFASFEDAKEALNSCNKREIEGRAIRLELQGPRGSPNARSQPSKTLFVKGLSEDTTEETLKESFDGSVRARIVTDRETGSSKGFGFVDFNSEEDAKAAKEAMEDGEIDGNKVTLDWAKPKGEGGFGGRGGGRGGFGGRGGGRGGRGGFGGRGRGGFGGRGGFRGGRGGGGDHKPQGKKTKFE
UniProt Q00987: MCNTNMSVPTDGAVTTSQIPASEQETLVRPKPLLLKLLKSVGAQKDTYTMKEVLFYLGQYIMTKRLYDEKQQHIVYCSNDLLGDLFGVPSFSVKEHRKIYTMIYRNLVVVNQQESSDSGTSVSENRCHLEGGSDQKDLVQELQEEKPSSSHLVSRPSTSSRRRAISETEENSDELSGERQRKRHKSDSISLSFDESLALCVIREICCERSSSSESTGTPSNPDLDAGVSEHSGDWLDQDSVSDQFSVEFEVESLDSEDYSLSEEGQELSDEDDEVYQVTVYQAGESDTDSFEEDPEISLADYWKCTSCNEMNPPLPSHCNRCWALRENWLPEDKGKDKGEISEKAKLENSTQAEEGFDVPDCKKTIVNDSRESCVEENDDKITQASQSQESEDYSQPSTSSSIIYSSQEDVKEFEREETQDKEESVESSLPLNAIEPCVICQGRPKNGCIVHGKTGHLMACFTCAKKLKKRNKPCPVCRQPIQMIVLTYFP

Tests used:
[1] = target: nucleolin (NCL) (human (endogenous in MNNG/HOS)) (UniProt P19338); assay: co-IP; whole-cell extracts of MNNG/HOS cells without aptamer treatment; anti-NCL antibody or IgG, Protein A/G magnetic beads, western blot
[2] = target: nucleolin (NCL) (human (endogenous in MNNG/HOS)) (UniProt P19338); assay: pull-down + ELISA; biotin pull-down with AS1411-SL1-2 at several concentrations; eluted proteins quantified by sandwich ELISA kits for MDM2, NCL and c-MET
[3] = target: nucleolin (NCL) (human (endogenous in MNNG/HOS)) (UniProt P19338); assay: pull-down + ELISA; biotin pull-down with AS1411 alone (ligand of NCL) or SL1 alone (ligand of c-MET); eluted proteins quantified by sandwich ELISA kits for MDM2, NCL and c-MET
[4] = target: nucleolin (NCL) (human (endogenous in MNNG/HOS)) (UniProt P19338); assay: pull-down; MNNG/HOS cells treated with 500 nM biotin-labeled AS1411-SL1-2 or CRO for 6 h, lysed, streptavidin-coated magnetic beads, western blot; also siNC- or siNCL-transfected cells
[5] = target: nucleolin (NCL) (human (endogenous in MNNG/HOS)) (UniProt P19338); assay: pull-down; MNNG/HOS cells treated with 500 nM biotin-labeled AS1411 (ligand of NCL) or CRO for 6 h, lysed, streptavidin-coated magnetic beads, western blot; also siNC- or siNCL-transfected cells
[6] = target: nucleolin (NCL) (human (endogenous in MNNG/HOS)) (UniProt P19338); assay: co-IP; whole-cell extracts of MNNG/HOS cells treated with 500 nM AS1411-SL1-2 (or AS1411) for 2 h; anti-NCL or anti-MDM2 antibody, Protein A/G magnetic beads, western blot; also siNCL- or siMDM2-transfected cells

Measured: binding

mouse double minute 2 homolog (MDM2) (from UniProt Q00987 1-491) (enzyme)
binds: [1] | [2] | [3] | [4] | [5] | [6]
